Data published in the supplement of paper PMC7666118.
The list shows a part of the results.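 How the source made its calls: active = dose-dependent thermal stabilisation significant by F-test of dose-response against flat model at 10% FDR; inactive = not significant.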

Target: T1, SARS2 (UniProt Q9NP81)
T1 sequence (whole entry): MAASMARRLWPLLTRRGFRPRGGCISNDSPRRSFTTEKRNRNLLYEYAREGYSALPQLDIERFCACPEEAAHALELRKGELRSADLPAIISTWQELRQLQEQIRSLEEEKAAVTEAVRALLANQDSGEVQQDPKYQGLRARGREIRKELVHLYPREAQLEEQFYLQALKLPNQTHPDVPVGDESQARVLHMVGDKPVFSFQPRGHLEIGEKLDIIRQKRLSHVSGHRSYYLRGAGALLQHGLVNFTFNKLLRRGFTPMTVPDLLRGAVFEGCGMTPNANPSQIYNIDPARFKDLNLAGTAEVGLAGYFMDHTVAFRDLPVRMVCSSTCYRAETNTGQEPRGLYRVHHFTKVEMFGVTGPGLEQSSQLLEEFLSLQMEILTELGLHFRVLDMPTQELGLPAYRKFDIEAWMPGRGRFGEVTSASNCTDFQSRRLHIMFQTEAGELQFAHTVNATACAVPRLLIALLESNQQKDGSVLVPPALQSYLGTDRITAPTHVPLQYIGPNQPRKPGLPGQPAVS
Test: dose-dependent thermal stabilisation call (2D-TPP, DLPTP, 10% FDR) (binary (1 = stabilised)); higher = stabilised by the compound
Conditions: system: Jurkat gel-filtered lysate; concentration range 1-500 µM
Description: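 2D thermal proteome profiling in gel-filtered Jurkat E6.1 lysate (2 mg/ml) treated with NaGTP (0, 1, 10, 100, 500 uM) for 10 min at room temperature, then heated 3 min at one of 12 temperatures (42-63.9 C). Soluble protein was quantified by TMT10 MS. The value is the DLPTP call of the paper: dose-dependent thermal stabilisation over all temperatures at 10% FDR (F-test of a dose-response against a flat model); one experiment, one call per tested protein.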

| SMILES | dose-dependent thermal stabilisation call |
| --- | --- |
| Nc1nc2c(ncn2[C@@H]2O[C@H](COP(=O)(O)OP(=O)(O)OP(=O)(O)O)[C@@H](O)[C@H]2O)c(=O)[nH]1 | active: 1 |
